Measured data: PubChem BioAssay AID652243 (Drosophila RNAi Screening Center, 2013)

- Screen: 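Fly genes required for human androgen receptor driven transcription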 (primary screen)
- Cells: Drosophila S2R+ cells
- Reagents: long dsRNA against Drosophila genes
- Time to read-out: 72 h (48 h, then 24 h hormone)
- Challenge: synthetic androgen R1881 at 10 nM for 24 h
- Read-out: 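Firefly light from an androgen-responsive reporter and Renilla control light per well, raw and unnormalised, for each of two replicates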
- Scale: firefly reporter light: higher = more light from androgen-responsive reporter; Renilla control light: higher = more constitutive control signal (cell number, transfection)
- Active means: 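Across duplicate plates, a knock-down whose log firefly/Renilla ratio shifted a set fold down or up from the GFP/LacZ control mean was a hit; the downward cut appears as both 1.5 and 3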
- Calls: active = hit: reporter lowered or raised; inactive = no hit
The deposit covers about 24,000 reagents; this is an unselected part of those with a known target gene and a result. Over the whole deposit, 246 (1%) got an active call. 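Plates not normalised; calls are printed but the firefly/Renilla ratio behind them is not deposited; fold cut for lowering reported inconsistently.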 Raw values are not corrected between plates. The numbers tell different reagents against one gene apart. Not given: the amount of reagent.

| target | reagent no. | firefly reporter light, replicate 1 | firefly reporter light, replicate 2 | Renilla control light, replicate 1 | Renilla control light, replicate 2 | call |
| --- | --- | --- | --- | --- | --- | --- |
| wake | 1 | 1.70e5 | 2.79e5 | 2.43e6 | 2.31e6 | inactive |
| wake | 2 | 1.47e5 | 2.26e5 | 2.41e6 | 2.33e6 | inactive |
| CG8950 | 1 | 6.65e5 | 3.06e5 | 6.35e5 | 3.51e5 | inactive |
| Pmvk | 1 | 1.58e5 | 1.63e5 | 1.73e6 | 1.48e6 | inactive |
| Pmvk | 2 | – | – | – | – | inactive |
| grk | 1 | 5.31e5 | 7.97e5 | 1.97e6 | 1.80e6 | inactive |
| CG11696 | 1 | 97616 | 75871 | 8.85e5 | 7.60e5 | inactive |
| Pepck2 | 1 | 62817 | 88690 | 1.52e6 | 1.88e6 | active |
| Pepck2 | 2 | 3.02e5 | 2.59e5 | 8.34e5 | 6.87e5 | inactive |
| CG8850 | 1 | 2.27e5 | 2.18e5 | 1.57e6 | 1.51e6 | inactive |
| CG8850 | 2 | 3.30e5 | 2.66e5 | 9.21e5 | 7.70e5 | inactive |
| betaTry | 1 | 3.80e5 | 3.95e5 | 3.00e6 | 2.84e6 | inactive |
| betaTry | 2 | 5.67e5 | 6.83e5 | 3.12e6 | 1.96e6 | inactive |
| betaTry | 3 | 4.50e5 | 4.85e5 | 1.62e6 | 1.52e6 | inactive |
| Kmn1 | 1 | 5.95e5 | 4.32e5 | 4.61e6 | 2.79e6 | inactive |
| Kmn1 | 2 | 3.26e5 | 2.67e5 | 5.11e5 | 4.97e5 | inactive |
| CR33701 | 1 | 8.07e5 | 8.06e5 | 1.37e6 | 1.54e6 | inactive |
| fs(1)h | 1 | 4.77e5 | 4.01e5 | 4.45e6 | 2.66e6 | inactive |
| fs(1)h | 2 | 3.44e5 | 3.80e5 | 9.24e5 | 8.79e5 | active |
| fs(1)h | 3 | – | – | – | – | inactive |
| CG15564 | 1 | 2.26e5 | 2.50e5 | 2.18e6 | 2.92e6 | inactive |
| CG14253 | 1 | 1.60e5 | 1.24e5 | 1.71e6 | 1.67e6 | inactive |
| CG32507 | 1 | 5.60e5 | 5.04e5 | 2.94e6 | 3.80e6 | inactive |
| CG4995 | 1 | 6.95e5 | 9.13e5 | 1.65e6 | 2.71e6 | inactive |

Laid out differently: results already given.
target | reagent no. | firefly reporter light, replicate 1 | firefly reporter light, replicate 2 | Renilla control light, replicate 1 | Renilla control light, replicate 2 | call
fs(1)h | 3 | – | – | – | – | inactive
CG15564 | 1 | 2.26e5 | 2.50e5 | 2.18e6 | 2.92e6 | inactive
CG14253 | 1 | 1.60e5 | 1.24e5 | 1.71e6 | 1.67e6 | inactive
